Measurements taken from the supplement of paper PMC11006884.
The targets with a hit were mostly taken out for another list; the other results follow. Single values of this set are uncertain. The entries are a selection whose mix differs from that of the whole data set.

Amino acid sequences for entries named in this document (tags omitted). A change or cut given only in a name is not applied to a line headed by its entry.
UniProt O43929: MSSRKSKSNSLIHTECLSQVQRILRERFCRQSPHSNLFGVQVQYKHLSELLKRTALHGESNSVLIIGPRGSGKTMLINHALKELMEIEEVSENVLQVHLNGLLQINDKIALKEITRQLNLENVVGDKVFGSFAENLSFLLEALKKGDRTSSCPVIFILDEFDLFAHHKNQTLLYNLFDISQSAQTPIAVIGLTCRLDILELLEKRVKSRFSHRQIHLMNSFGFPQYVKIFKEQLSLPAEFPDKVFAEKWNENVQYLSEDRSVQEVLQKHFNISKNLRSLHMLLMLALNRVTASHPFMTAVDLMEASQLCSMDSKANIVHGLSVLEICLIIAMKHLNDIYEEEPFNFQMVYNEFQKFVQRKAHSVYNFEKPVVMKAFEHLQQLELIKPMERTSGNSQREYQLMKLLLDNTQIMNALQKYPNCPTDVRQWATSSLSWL
UniProt O60232: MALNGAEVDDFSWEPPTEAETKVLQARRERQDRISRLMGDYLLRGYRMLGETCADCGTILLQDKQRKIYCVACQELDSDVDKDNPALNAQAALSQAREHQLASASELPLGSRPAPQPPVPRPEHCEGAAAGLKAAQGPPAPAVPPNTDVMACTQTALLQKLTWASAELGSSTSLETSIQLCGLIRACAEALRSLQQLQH
UniProt O75643, whole entry, looked up: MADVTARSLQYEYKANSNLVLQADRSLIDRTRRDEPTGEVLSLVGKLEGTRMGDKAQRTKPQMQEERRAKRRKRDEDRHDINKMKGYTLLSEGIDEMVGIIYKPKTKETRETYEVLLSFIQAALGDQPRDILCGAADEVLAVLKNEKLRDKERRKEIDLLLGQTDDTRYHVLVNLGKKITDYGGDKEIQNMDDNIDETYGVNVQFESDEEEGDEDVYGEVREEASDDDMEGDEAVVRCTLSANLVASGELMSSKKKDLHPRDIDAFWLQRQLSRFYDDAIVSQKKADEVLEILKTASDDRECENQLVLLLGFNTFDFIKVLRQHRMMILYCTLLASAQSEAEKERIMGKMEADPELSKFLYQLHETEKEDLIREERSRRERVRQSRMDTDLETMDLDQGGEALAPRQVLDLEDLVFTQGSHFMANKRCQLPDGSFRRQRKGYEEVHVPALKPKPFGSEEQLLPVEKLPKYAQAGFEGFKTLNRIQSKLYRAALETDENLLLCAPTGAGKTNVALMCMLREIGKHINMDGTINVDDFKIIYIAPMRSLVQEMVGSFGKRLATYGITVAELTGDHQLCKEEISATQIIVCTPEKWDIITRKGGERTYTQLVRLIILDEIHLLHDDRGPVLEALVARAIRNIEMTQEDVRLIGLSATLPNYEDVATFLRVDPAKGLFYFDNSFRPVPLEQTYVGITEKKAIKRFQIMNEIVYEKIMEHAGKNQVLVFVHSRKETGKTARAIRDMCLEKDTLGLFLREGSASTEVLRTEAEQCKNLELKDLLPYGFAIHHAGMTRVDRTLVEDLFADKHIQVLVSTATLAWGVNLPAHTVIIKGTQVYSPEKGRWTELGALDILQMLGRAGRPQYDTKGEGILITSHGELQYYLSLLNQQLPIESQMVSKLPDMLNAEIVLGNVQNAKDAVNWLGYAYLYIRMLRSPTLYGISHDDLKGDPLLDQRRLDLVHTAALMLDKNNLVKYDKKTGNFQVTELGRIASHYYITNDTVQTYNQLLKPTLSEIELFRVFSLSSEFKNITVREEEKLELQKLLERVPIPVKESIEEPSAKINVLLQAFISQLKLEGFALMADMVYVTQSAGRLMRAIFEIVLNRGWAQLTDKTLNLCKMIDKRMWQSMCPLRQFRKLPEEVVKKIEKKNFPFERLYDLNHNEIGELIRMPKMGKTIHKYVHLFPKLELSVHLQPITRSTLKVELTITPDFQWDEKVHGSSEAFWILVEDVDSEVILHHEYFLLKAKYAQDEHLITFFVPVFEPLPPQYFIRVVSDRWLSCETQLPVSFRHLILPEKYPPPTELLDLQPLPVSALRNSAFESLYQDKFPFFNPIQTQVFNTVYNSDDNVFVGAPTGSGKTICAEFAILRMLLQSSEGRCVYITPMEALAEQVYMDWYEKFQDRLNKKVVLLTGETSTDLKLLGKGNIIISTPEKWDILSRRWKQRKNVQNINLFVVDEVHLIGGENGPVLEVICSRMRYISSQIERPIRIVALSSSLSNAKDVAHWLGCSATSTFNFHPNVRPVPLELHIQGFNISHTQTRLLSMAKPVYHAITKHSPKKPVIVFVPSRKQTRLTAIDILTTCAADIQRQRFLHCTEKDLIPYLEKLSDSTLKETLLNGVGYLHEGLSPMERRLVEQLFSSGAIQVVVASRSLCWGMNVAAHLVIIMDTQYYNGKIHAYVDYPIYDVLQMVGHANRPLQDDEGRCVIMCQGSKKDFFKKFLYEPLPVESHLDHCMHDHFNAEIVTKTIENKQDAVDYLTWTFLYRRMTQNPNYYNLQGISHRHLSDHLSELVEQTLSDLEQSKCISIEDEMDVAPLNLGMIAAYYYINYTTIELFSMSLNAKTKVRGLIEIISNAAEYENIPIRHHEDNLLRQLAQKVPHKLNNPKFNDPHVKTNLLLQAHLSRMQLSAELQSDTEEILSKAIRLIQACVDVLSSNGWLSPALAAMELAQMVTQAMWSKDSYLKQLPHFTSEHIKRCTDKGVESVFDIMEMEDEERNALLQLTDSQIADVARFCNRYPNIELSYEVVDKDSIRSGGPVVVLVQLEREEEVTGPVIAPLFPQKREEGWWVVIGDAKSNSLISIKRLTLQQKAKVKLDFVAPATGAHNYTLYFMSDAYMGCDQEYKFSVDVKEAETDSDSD
UniProt O75192: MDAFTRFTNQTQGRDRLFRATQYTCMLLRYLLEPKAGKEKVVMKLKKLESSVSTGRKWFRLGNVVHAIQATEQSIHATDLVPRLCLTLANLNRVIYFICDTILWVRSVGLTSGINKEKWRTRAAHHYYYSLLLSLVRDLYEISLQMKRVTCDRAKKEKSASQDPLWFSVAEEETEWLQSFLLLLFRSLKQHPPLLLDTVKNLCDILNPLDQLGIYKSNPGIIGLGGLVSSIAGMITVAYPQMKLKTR
UniProt O60701: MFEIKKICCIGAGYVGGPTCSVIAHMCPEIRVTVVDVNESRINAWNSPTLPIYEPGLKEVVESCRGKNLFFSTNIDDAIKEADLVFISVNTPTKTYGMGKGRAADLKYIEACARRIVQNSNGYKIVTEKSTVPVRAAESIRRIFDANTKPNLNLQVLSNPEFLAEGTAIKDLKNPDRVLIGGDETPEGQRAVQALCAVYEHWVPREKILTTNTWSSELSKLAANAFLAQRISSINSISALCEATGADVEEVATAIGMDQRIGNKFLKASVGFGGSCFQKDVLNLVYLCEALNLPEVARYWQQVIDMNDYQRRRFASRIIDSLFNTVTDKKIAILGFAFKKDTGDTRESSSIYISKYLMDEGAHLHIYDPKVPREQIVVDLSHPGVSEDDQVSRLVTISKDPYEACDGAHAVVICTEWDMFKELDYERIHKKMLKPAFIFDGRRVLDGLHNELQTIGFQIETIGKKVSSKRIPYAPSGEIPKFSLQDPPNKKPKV
UniProt O75683: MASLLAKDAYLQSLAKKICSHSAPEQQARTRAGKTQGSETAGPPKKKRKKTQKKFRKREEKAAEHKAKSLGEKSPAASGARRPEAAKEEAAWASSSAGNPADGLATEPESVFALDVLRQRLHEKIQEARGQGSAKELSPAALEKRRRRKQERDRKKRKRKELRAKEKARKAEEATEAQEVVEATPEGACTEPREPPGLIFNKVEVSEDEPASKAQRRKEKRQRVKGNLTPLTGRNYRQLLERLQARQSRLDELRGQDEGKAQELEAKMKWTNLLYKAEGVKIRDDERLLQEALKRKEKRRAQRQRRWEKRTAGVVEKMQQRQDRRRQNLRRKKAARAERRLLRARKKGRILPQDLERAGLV
UniProt O75348, whole entry, looked up: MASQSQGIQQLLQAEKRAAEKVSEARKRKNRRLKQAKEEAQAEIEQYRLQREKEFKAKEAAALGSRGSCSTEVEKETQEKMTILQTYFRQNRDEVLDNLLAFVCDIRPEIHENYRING
UniProt O43708: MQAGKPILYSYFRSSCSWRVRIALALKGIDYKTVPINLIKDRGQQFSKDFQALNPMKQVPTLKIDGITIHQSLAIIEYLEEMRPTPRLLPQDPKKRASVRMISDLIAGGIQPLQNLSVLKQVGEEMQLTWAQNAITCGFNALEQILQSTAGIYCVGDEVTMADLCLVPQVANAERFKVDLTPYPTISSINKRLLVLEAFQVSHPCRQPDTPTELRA
UniProt O75334: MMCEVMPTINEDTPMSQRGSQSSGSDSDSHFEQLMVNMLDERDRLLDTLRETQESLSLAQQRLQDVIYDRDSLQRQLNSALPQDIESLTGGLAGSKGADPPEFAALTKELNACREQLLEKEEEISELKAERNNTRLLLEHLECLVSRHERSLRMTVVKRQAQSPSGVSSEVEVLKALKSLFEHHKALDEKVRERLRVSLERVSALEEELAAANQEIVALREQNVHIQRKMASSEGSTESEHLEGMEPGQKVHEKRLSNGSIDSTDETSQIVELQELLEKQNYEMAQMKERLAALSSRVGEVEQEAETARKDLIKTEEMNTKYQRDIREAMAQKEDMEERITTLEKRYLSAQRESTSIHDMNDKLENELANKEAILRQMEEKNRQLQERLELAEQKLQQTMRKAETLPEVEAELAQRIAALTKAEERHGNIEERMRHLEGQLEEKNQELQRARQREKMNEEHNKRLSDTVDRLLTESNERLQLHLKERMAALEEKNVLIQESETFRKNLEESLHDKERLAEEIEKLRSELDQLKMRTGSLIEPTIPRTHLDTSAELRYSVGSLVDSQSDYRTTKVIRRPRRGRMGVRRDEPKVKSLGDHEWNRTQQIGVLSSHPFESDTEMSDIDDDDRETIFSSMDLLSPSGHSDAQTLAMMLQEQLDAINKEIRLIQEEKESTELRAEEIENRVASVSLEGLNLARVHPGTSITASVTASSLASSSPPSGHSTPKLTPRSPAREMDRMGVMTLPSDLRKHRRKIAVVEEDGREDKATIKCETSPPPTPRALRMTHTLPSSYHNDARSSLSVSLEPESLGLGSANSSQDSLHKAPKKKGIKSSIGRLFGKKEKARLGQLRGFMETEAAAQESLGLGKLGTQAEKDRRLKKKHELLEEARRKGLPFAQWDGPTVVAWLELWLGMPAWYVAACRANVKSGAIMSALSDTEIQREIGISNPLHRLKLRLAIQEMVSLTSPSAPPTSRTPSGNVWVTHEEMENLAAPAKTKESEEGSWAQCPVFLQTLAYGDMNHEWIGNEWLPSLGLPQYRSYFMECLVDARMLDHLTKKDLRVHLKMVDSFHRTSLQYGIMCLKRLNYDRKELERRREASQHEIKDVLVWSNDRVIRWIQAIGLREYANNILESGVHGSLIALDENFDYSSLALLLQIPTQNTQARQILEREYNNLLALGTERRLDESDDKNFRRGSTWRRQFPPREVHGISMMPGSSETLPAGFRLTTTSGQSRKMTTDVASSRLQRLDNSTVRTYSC
UniProt O60264, whole entry, looked up: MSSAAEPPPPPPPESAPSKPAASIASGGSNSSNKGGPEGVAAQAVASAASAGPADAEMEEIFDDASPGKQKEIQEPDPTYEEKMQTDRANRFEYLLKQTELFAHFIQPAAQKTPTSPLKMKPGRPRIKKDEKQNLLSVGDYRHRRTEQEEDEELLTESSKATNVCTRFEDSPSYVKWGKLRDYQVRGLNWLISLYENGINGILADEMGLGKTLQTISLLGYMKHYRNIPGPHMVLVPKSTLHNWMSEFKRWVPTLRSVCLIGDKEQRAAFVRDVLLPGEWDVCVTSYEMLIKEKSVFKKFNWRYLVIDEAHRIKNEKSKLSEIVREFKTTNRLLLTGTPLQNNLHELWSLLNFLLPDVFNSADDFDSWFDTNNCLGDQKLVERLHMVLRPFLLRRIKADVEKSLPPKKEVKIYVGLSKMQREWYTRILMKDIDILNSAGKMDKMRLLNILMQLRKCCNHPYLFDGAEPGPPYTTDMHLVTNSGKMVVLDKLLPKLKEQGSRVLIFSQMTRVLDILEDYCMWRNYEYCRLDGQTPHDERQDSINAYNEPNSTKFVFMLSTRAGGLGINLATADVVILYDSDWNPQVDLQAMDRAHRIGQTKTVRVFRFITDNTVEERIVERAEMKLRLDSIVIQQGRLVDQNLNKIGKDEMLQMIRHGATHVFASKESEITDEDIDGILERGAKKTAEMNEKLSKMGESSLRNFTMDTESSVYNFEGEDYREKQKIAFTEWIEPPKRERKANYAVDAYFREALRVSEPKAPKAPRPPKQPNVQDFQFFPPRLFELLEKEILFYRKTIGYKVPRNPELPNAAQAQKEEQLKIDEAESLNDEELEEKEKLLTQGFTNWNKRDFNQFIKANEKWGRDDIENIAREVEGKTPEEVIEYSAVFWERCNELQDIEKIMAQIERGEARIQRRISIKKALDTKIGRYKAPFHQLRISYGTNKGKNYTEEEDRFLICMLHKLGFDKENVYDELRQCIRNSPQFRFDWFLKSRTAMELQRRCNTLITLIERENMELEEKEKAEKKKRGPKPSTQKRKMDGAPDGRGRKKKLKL

What follows are targets tested with COC(=O)/C=C/c1ccccc1 [methyl cinnamate] (assay: log2 ratio of iodoacetamide-alkyne labeling of the cysteine site, DMSO over compound (competition); higher = stronger covalent engagement of the cysteine by the compound, active = 1 or more). Details: 500 µM; treatment time 1 h; system: HEK293T cell lysate.
Outline: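 Electrophile (500 µM) or vehicle was added to HEK293T lysate (2 mg/mL) for 1 h at ambient temperature before iodoacetamide alkyne labelling (1 h) and click coupling to sCIP-TMT reagents. After pooling, overnight trypsin digestion at 37 °C, streptavidin enrichment and acid elution, peptides were measured by Orbitrap Eclipse LC-MS/MS with FAIMS and quantified in FragPipe. Each cysteine's log2 competition ratio compares mean control-channel with mean compound-channel reporter intensity, control over compound. Data came from duplicate channels across three replicates, excluding cysteines quantified in only one replicate.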

log2 ratio of iodoacetamide-alkyne labeling, inactive:
UniProt O43929_C16 0.057
UniProt O60610_C314 -0.582
UniProt O60232_C56 0.123
FLNB C1280 (UniProt O75369) -0.203
CSDE1 C506 (UniProt O75534) 0.371
RRP9 C399 (UniProt O43818) -0.0182
UniProt O60282_C393 0.0955
UniProt O75528_C7 0.315
SNRNP200 C133 (UniProt O75643) -0.0688
UniProt O60232_C73 0.305
CPD C582 (UniProt O75976) -0.0142
UniProt O43432_C1411 -0.132
CSDE1 C680 (UniProt O75534) 0.0443
UniProt O75153_C88 -0.0483
UniProt O75192_C203 0.411
UGDH C196 (UniProt O60701) -0.04
RSL1D1 C96 (UniProt O76021) 0.346
NCOR1 C2056 (UniProt O75376) 0.177
MED24 C336 (UniProt O75448) 0.129
PLOD3 C691 (UniProt O60568) 0.208
EIF3G C139 (UniProt O75821) 0.337
ROCK2 C428 (UniProt O75116) 0.166
SRGAP2 C893 (UniProt O75044) 0.218
SURF6 C189 (UniProt O75683) 0.391
MED7 C223 (UniProt O43513) 0.0257
ASNA1 C289 (UniProt O43681) 0.183
CS C211 (UniProt O75390) 0.182
ATP6V1G1 C104 (UniProt O75348) 0.129
ZC3H11A C636 (UniProt O75152) 0.471
GSTZ1 C205 (UniProt O43708) 0.229
ERAL1 C425 (UniProt O75616) 0.181
PPFIA2 C143 (UniProt O75334) -0.191
UniProt O43432_C638 -0.096
ZNF292 C1564 (UniProt O60281) 0.202
TBC1D4 C753 (UniProt O60343) 0.36
SMARCA5 C259 (UniProt O60264) 0.159
SRGAP2 C98 (UniProt O75044) 0.142

Two records picked at random from those above, as already listed:
log2 ratio of iodoacetamide-alkyne labeling, inactive:
ROCK2 C428 (UniProt O75116) 0.166
UniProt O60232_C73 0.305
